Measurements reported in PubChem BioAssay AID1259254 (NCATS, 2017)
Test: 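Genome-wide screen for genes that prevent DNA re-replication in cancer cells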 (primary screen). Cells: human HCT116 colorectal cancer cells. Reagents: single siRNA against human genes. Timing: 3 days. Measurement: 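Nuclei stained with Hoechst and imaged; cell-cycle phase assigned by DNA content; G2 share scaled per plate, non-targeting siRNA 0%, GMNN siRNA 100%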. Reading the numbers: G2 robust z-score and G2 cells, % of GMNN control: higher = more G2 cells, more excess DNA replication; raw share of cells in G2: higher = larger share of cells with G2 DNA content. Active means: 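Active siRNAs have a G2 robust z of 5 or more median absolute deviations over the median, which in these data means about 38% or higher of GMNN control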.
In all, the deposit lists about 59,000 reagents; this is an unselected part. Of all reagents, about 1,550 (2.6%) were called active. 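G2 share is only a proxy for re-replication; each gene was hit by three separate siRNAs, and active genes were retested.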 The raw values are shown without normalisation. The numbers tell different reagents against one gene apart. Not given: the amount of reagent.

| Target gene | reagent | G2 robust z-score | G2 cells, % of GMNN control | raw share of cells in G2 (%) | Outcome |
| --- | --- | --- | --- | --- | --- |
| RPL5P1 | 1 | 3.33 | 26.4 | 13.7 | inactive |
| RPL5P1 | 2 | -0.797 | -2.64 | 2.25 | inactive |
| RPL5P1 | 3 | -0.364 | 0.403 | 3.17 | inactive |
| MYO1D | 1 | -0.0457 | 2.65 | 4.07 | inactive |
| MYO1D | 2 | 0.273 | 4.89 | 7.41 | inactive |
| MYO1D | 3 | 6.14 | 46.1 | 23.2 | active |
| ABHD5 | 1 | 1.96 | 16.8 | 11.4 | inactive |
| ABHD5 | 2 | 0.199 | 4.37 | 6.45 | inactive |
| ABHD5 | 3 | 0.0901 | 3.6 | 5.25 | inactive |
| C16orf54 | 1 | 1.65 | 14.6 | 8.34 | inactive |
| C16orf54 | 2 | 2.62 | 21.4 | 11.7 | inactive |
| C16orf54 | 3 | 0.982 | 9.88 | 8.01 | inactive |
| GOSR2 | 1 | 0.423 | 5.94 | 5.5 | inactive |
| GOSR2 | 2 | -0.312 | 0.774 | 6.33 | inactive |
| GOSR2 | 3 | -0.237 | 1.3 | 3.88 | inactive |
| EFEMP2 | 1 | 3.78 | 29.6 | 14 | inactive |
| EFEMP2 | 2 | 2.33 | 19.3 | 10.3 | inactive |
| EFEMP2 | 3 | -1.29 | -6.09 | 3.4 | inactive |
| OR8K5 | 1 | 1.67 | 14.7 | 8.92 | inactive |
| OR8K5 | 2 | 1.56 | 13.9 | 7.91 | inactive |
| OR8K5 | 3 | 4.1 | 31.8 | 13.3 | inactive |
| KNOP1 | 1 | 0.109 | 3.74 | 5.17 | inactive |
| KNOP1 | 2 | 1.17 | 11.2 | 7.96 | inactive |
| KNOP1 | 3 | -1.07 | -4.56 | 2.9 | inactive |
| CARD17P | 1 | 0.241 | 4.67 | 5.99 | inactive |
| CARD17P | 2 | 2.34 | 19.4 | 14.3 | inactive |
| CARD17P | 3 | 1.14 | 11 | 9.25 | inactive |
| SKIC3 | 1 | 0.182 | 4.25 | 7.25 | inactive |
| SKIC3 | 2 | 3.53 | 27.8 | 15.5 | inactive |
| SKIC3 | 3 | 1.11 | 10.8 | 7.33 | inactive |
| FNBP4 | 1 | 0.113 | 3.76 | 5.83 | inactive |
| FNBP4 | 2 | -0.0438 | 2.66 | 5.09 | inactive |
| FNBP4 | 3 | -0.632 | -1.48 | 2.78 | inactive |
| IVNS1ABP | 1 | -0.537 | -0.808 | 4.67 | inactive |
| IVNS1ABP | 2 | 1.37 | 12.6 | 9.33 | inactive |
| IVNS1ABP | 3 | 0.874 | 9.12 | 6.59 | inactive |
| TMEM270 | 1 | -0.272 | 1.05 | 3.42 | inactive |
| TMEM270 | 2 | -1.2 | -5.5 | 2.19 | inactive |
| TMEM270 | 3 | 2.38 | 19.7 | 10.1 | inactive |
| DIPK2A | 1 | -0.839 | -2.93 | 2.51 | inactive |
| DIPK2A | 2 | 4.45 | 34.3 | 14.9 | inactive |
| DIPK2A | 3 | 0.153 | 4.04 | 4.48 | inactive |
| PIP4K2B | 1 | 1.19 | 11.3 | 9.35 | inactive |
| PIP4K2B | 2 | -1.05 | -4.45 | 3.91 | inactive |
| PIP4K2B | 3 | -1.16 | -5.22 | 2.18 | inactive |
| ACOT6 | 1 | 0.865 | 9.05 | 7.12 | inactive |
| ACOT6 | 2 | 0.687 | 7.8 | 6.37 | inactive |
| ACOT6 | 3 | 0.0882 | 3.59 | 4.34 | inactive |
| CTNNB1 | 1 | -0.147 | 1.94 | 6.19 | inactive |
| CTNNB1 | 2 | -0.0402 | 2.68 | 6.17 | inactive |
| CTNNB1 | 3 | 1.12 | 10.9 | 7.16 | inactive |
| HAND2-AS1 | 1 | 0.691 | 7.83 | 7.69 | inactive |
| HAND2-AS1 | 2 | 2.46 | 20.3 | 13.2 | inactive |
| HAND2-AS1 | 3 | 0.819 | 8.73 | 4.76 | inactive |
| LILRA4 | 1 | 2.89 | 23.3 | 15.7 | inactive |
| LILRA4 | 2 | -0.402 | 0.141 | 4.2 | inactive |
| LILRA4 | 3 | 0.267 | 4.84 | 5.52 | inactive |
| FGF23 | 1 | 0.152 | 4.03 | 6.92 | inactive |
| FGF23 | 2 | 2.15 | 18.1 | 11.1 | inactive |
| FGF23 | 3 | -0.853 | -3.03 | 2.28 | inactive |
| TMBIM4 | 1 | 4.67 | 35.8 | 16.4 | inactive |
| TMBIM4 | 2 | 1.7 | 14.9 | 10.6 | inactive |
| TMBIM4 | 3 | 1.94 | 16.6 | 8.69 | inactive |
| CHEK1 | 1 | 0.0454 | 3.29 | 6.69 | inactive |
| CHEK1 | 2 | 0.614 | 7.29 | 7.87 | inactive |
| CHEK1 | 3 | -1.01 | -4.12 | 2.57 | inactive |
| KLF16 | 1 | 0.0288 | 3.17 | 3.91 | inactive |
| KLF16 | 2 | 0.311 | 5.16 | 8.24 | inactive |
| KLF16 | 3 | 1.46 | 13.3 | 7.8 | inactive |
| GRAMD2B | 1 | -0.517 | -0.667 | 4.29 | inactive |
| GRAMD2B | 2 | 0.164 | 4.12 | 6.45 | inactive |
| GRAMD2B | 3 | -0.446 | -0.171 | 2.65 | inactive |
| COL4A5 | 1 | 0.783 | 8.48 | 9.28 | inactive |
| COL4A5 | 2 | 0.807 | 8.65 | 7.25 | inactive |
| COL4A5 | 3 | -0.374 | 0.334 | 3.65 | inactive |
| ZNF561 | 1 | 1.08 | 10.6 | 6.73 | inactive |
| ZNF561 | 2 | -0.752 | -2.33 | 2.36 | inactive |
| ZNF561 | 3 | 0.269 | 4.86 | 5.23 | inactive |
| B3GNT3 | 1 | 0.712 | 7.98 | 9.16 | inactive |
| B3GNT3 | 2 | -0.74 | -2.24 | 5.59 | inactive |
| B3GNT3 | 3 | -0.312 | 0.769 | 4.09 | inactive |
| PEBP1 | 1 | 0.0611 | 3.4 | 4.36 | inactive |
| PEBP1 | 2 | 0.321 | 5.23 | 7.18 | inactive |
| PEBP1 | 3 | -1.36 | -6.63 | 2.06 | inactive |
| ST13P8 | 1 | 3.98 | 31 | 16.7 | inactive |
| ST13P8 | 2 | 0.25 | 4.72 | 5.61 | inactive |
| ST13P8 | 3 | -0.559 | -0.965 | 2.84 | inactive |

6 entries from above, arranged by “G2 cells, % of GMNN control”, low to high.
| Target gene | reagent | G2 robust z-score | G2 cells, % of GMNN control | raw share of cells in G2 (%) | Outcome |
| --- | --- | --- | --- | --- | --- |
| ZNF561 | 2 | -0.752 | -2.33 | 2.36 | inactive |
| B3GNT3 | 2 | -0.74 | -2.24 | 5.59 | inactive |
| COL4A5 | 3 | -0.374 | 0.334 | 3.65 | inactive |
| ZNF561 | 3 | 0.269 | 4.86 | 5.23 | inactive |
| B3GNT3 | 1 | 0.712 | 7.98 | 9.16 | inactive |
| ZNF561 | 1 | 1.08 | 10.6 | 6.73 | inactive |
